Measured values: publication PMC11352961 (RSC Chemical Biology, 2024)
HELM strings list residues between dots; [ac] is acetyl, [am] amide, other brackets name non-standard units.

Experiment: general procedure: Fmoc solid-phase peptide synthesis; Rink Amide AM resin LL (Novabiochem)
Settings: whole synthesis, TFA salt

Substance	isolated yield [%]
PEPTIDE1{R.L.K.R.L.K.R.L.K.[Lys(C18)].A.[am]}|PEPTIDE2{R.L.K.R.L.K.R.L}|PEPTIDE3{R.L.K.R.L}|PEPTIDE4{R.L.K.R.L}|PEPTIDE5{R.L}|PEPTIDE6{R.L}|PEPTIDE7{R.L}|PEPTIDE8{R.L}$PEPTIDE1,PEPTIDE2,9:R3-8:R2|PEPTIDE1,PEPTIDE3,6:R3-5:R2|PEPTIDE2,PEPTIDE4,6:R3-5:R2|PEPTIDE1,PEPTIDE5,3:R3-2:R2|PEPTIDE2,PEPTIDE6,3:R3-2:R2|PEPTIDE3,PEPTIDE7,3:R3-2:R2|PEPTIDE4,PEPTIDE8,3:R3-2:R2$$$V2.0	4.7
PEPTIDE1{R.L.K.R.L.K.R.L.K.[Lys(C18)].C.[am]}|PEPTIDE2{R.L.K.R.L.K.R.L}|PEPTIDE3{R.L.K.R.L}|PEPTIDE4{R.L.K.R.L}|PEPTIDE5{R.L}|PEPTIDE6{R.L}|PEPTIDE7{R.L}|PEPTIDE8{R.L}$PEPTIDE1,PEPTIDE2,9:R3-8:R2|PEPTIDE1,PEPTIDE3,6:R3-5:R2|PEPTIDE2,PEPTIDE4,6:R3-5:R2|PEPTIDE1,PEPTIDE5,3:R3-2:R2|PEPTIDE2,PEPTIDE6,3:R3-2:R2|PEPTIDE3,PEPTIDE7,3:R3-2:R2|PEPTIDE4,PEPTIDE8,3:R3-2:R2$$$V2.0	2.3
PEPTIDE1{R.L.K.R.L.K.R.L.K.[Lys(C18)].[am]}|PEPTIDE2{R.L.K.R.L.K.R.L}|PEPTIDE3{R.L.K.R.L}|PEPTIDE4{R.L.K.R.L}|PEPTIDE5{R.L}|PEPTIDE6{R.L}|PEPTIDE7{R.L}|PEPTIDE8{R.L}$PEPTIDE1,PEPTIDE2,9:R3-8:R2|PEPTIDE1,PEPTIDE3,6:R3-5:R2|PEPTIDE2,PEPTIDE4,6:R3-5:R2|PEPTIDE1,PEPTIDE5,3:R3-2:R2|PEPTIDE2,PEPTIDE6,3:R3-2:R2|PEPTIDE3,PEPTIDE7,3:R3-2:R2|PEPTIDE4,PEPTIDE8,3:R3-2:R2$$$V2.0	2.8
PEPTIDE1{[dK].[dL].[dK].[dK].[dL].[dK].[dK].[dL].[dK].[D-Lys(C16)].[am]}|PEPTIDE2{[dK].[dL].[dK].[dK].[dL].[dK].[dK].[dL]}|PEPTIDE3{[dK].[dL].[dK].[dK].[dL]}|PEPTIDE4{[dK].[dL].[dK].[dK].[dL]}|PEPTIDE5{[dK].[dL]}|PEPTIDE6{[dK].[dL]}|PEPTIDE7{[dK].[dL]}|PEPTIDE8{[dK].[dL]}$PEPTIDE1,PEPTIDE2,9:R3-8:R2|PEPTIDE1,PEPTIDE3,6:R3-5:R2|PEPTIDE2,PEPTIDE4,6:R3-5:R2|PEPTIDE1,PEPTIDE5,3:R3-2:R2|PEPTIDE2,PEPTIDE6,3:R3-2:R2|PEPTIDE3,PEPTIDE7,3:R3-2:R2|PEPTIDE4,PEPTIDE8,3:R3-2:R2$$$V2.0	8.6
PEPTIDE1{[dK].[dL].[dK].[dK].[dL].[dK].[dK].[dL].[dK].[D-Lys(C18)].[D-Lys(C18)].[am]}|PEPTIDE2{[dK].[dL].[dK].[dK].[dL].[dK].[dK].[dL]}|PEPTIDE3{[dK].[dL].[dK].[dK].[dL]}|PEPTIDE4{[dK].[dL].[dK].[dK].[dL]}|PEPTIDE5{[dK].[dL]}|PEPTIDE6{[dK].[dL]}|PEPTIDE7{[dK].[dL]}|PEPTIDE8{[dK].[dL]}$PEPTIDE1,PEPTIDE2,9:R3-8:R2|PEPTIDE1,PEPTIDE3,6:R3-5:R2|PEPTIDE2,PEPTIDE4,6:R3-5:R2|PEPTIDE1,PEPTIDE5,3:R3-2:R2|PEPTIDE2,PEPTIDE6,3:R3-2:R2|PEPTIDE3,PEPTIDE7,3:R3-2:R2|PEPTIDE4,PEPTIDE8,3:R3-2:R2$$$V2.0	2.6
PEPTIDE1{[dK].[dL].[dK].[dK].[dL].[dK].[dK].[dL].[dK].[D-Lys(C18)].[am]}|PEPTIDE2{[dK].[dL].[dK].[dK].[dL].[dK].[dK].[dL]}|PEPTIDE3{[dK].[dL].[dK].[dK].[dL]}|PEPTIDE4{[dK].[dL].[dK].[dK].[dL]}|PEPTIDE5{[dK].[dL]}|PEPTIDE6{[dK].[dL]}|PEPTIDE7{[dK].[dL]}|PEPTIDE8{[dK].[dL]}$PEPTIDE1,PEPTIDE2,9:R3-8:R2|PEPTIDE1,PEPTIDE3,6:R3-5:R2|PEPTIDE2,PEPTIDE4,6:R3-5:R2|PEPTIDE1,PEPTIDE5,3:R3-2:R2|PEPTIDE2,PEPTIDE6,3:R3-2:R2|PEPTIDE3,PEPTIDE7,3:R3-2:R2|PEPTIDE4,PEPTIDE8,3:R3-2:R2$$$V2.0	7.6
PEPTIDE1{[dK].[dL].[dK].[dK].[dL].[dK].[dK].[dL].[dK].[D-Lys(C18)].[dA].[am]}|PEPTIDE2{[dK].[dL].[dK].[dK].[dL].[dK].[dK].[dL]}|PEPTIDE3{[dK].[dL].[dK].[dK].[dL]}|PEPTIDE4{[dK].[dL].[dK].[dK].[dL]}|PEPTIDE5{[dK].[dL]}|PEPTIDE6{[dK].[dL]}|PEPTIDE7{[dK].[dL]}|PEPTIDE8{[dK].[dL]}$PEPTIDE1,PEPTIDE2,9:R3-8:R2|PEPTIDE1,PEPTIDE3,6:R3-5:R2|PEPTIDE2,PEPTIDE4,6:R3-5:R2|PEPTIDE1,PEPTIDE5,3:R3-2:R2|PEPTIDE2,PEPTIDE6,3:R3-2:R2|PEPTIDE3,PEPTIDE7,3:R3-2:R2|PEPTIDE4,PEPTIDE8,3:R3-2:R2$$$V2.0	9
PEPTIDE1{[dK].[dL].[dK].[dK].[dL].[dK].[dK].[dL].[dK].[dL].[dL].[dL].[dL].[dL].[am]}|PEPTIDE2{[dK].[dL].[dK].[dK].[dL].[dK].[dK].[dL]}|PEPTIDE3{[dK].[dL].[dK].[dK].[dL]}|PEPTIDE4{[dK].[dL].[dK].[dK].[dL]}|PEPTIDE5{[dK].[dL]}|PEPTIDE6{[dK].[dL]}|PEPTIDE7{[dK].[dL]}|PEPTIDE8{[dK].[dL]}$PEPTIDE1,PEPTIDE2,9:R3-8:R2|PEPTIDE1,PEPTIDE3,6:R3-5:R2|PEPTIDE2,PEPTIDE4,6:R3-5:R2|PEPTIDE1,PEPTIDE5,3:R3-2:R2|PEPTIDE2,PEPTIDE6,3:R3-2:R2|PEPTIDE3,PEPTIDE7,3:R3-2:R2|PEPTIDE4,PEPTIDE8,3:R3-2:R2$$$V2.0	9.5
PEPTIDE1{[dK].[dL].[dK].[dK].[dL].[dK].[dL].[dL].[dK].[D-Lys(C18)].[am]}|PEPTIDE2{[dK].[dL].[dK].[dK].[dL].[dK].[dL].[dL]}|PEPTIDE3{[dK].[dL].[dK].[dK].[dL]}|PEPTIDE4{[dK].[dL].[dK].[dK].[dL]}|PEPTIDE5{[dK].[dL]}|PEPTIDE6{[dK].[dL]}|PEPTIDE7{[dK].[dL]}|PEPTIDE8{[dK].[dL]}$PEPTIDE1,PEPTIDE2,9:R3-8:R2|PEPTIDE1,PEPTIDE3,6:R3-5:R2|PEPTIDE2,PEPTIDE4,6:R3-5:R2|PEPTIDE1,PEPTIDE5,3:R3-2:R2|PEPTIDE2,PEPTIDE6,3:R3-2:R2|PEPTIDE3,PEPTIDE7,3:R3-2:R2|PEPTIDE4,PEPTIDE8,3:R3-2:R2$$$V2.0	5.3
PEPTIDE1{[dK].[dL].[dK].[dL].[dL].[dK].[dL].[dL].[dK].[D-Lys(C18)].[am]}|PEPTIDE2{[dK].[dL].[dK].[dL].[dL].[dK].[dL].[dL]}|PEPTIDE3{[dK].[dL].[dK].[dL].[dL]}|PEPTIDE4{[dK].[dL].[dK].[dL].[dL]}|PEPTIDE5{[dK].[dL]}|PEPTIDE6{[dK].[dL]}|PEPTIDE7{[dK].[dL]}|PEPTIDE8{[dK].[dL]}$PEPTIDE1,PEPTIDE2,9:R3-8:R2|PEPTIDE1,PEPTIDE3,6:R3-5:R2|PEPTIDE2,PEPTIDE4,6:R3-5:R2|PEPTIDE1,PEPTIDE5,3:R3-2:R2|PEPTIDE2,PEPTIDE6,3:R3-2:R2|PEPTIDE3,PEPTIDE7,3:R3-2:R2|PEPTIDE4,PEPTIDE8,3:R3-2:R2$$$V2.0	5.8
